Experimental data taken from PubChem BioAssay AID1487 (National Center for Advancing Translational Sciences (NCATS), 2009).
The list shows a part of the results. Shown are side measurements of this screen, not its main read-out; they come without a call. The list favours compounds with an active or inconclusive main result. Potencies come from curve fits of mixed quality, noted in brackets.

Assay: qHTS Assay for Modulators of Lamin A Splicing
Conditions: HeLa LMNA splicing GFP/RFP minigene ratio, 48 h
Summary of the method: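 S3 HeLa cells stably expressing lamin A-EGFP splicing minigene plus DsRed2, 600 cells/well, 48 h compound exposure at 37C. Laser-scanning cytometry; analysed as GFP (500-530 nm)/RFP (575-640 nm) total intensity ratio; 0.5% DMSO vehicle.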

[1] = measured here: RFP viability control channel
[2] = measured here: GFP splicing reporter channel

SMILES | AC50 [1] | AC50 [2]
CC(=O)c1cc2c(cc1N/C(=N/S(=O)(=O)c1ccccc1)c1ccc(Cl)cc1)OCO2 | 4.47 µM [rising, partial curve, poor fit] | 
COc1ccc(NC(=O)c2cccc(S(=O)(=O)Nc3ccc(Br)cc3)c2)cn1 | 3.98 µM [rising, full curve] | 
CC(C)c1ccc(NC(c2nnc(-c3ccccc3)o2)c2ccc(F)cc2Cl)cc1 (centres undefined) | 11.2 µM [rising, partial curve] | 
CCOc1ccc(C(=O)NCc2ccncc2)cc1 | 12.6 µM [rising, single point] | 17.8 µM [rising, single point]
Cc1cc(C)c(OCC(=O)Nc2nc(-c3ccccn3)cs2)c(C)c1 | 0.0224 µM [rising, full curve, poor fit] | 
Cc1cc(C)cc(N(C(=O)CCC(=O)Nc2ccccn2)C(C(=O)NC(C)C)c2ccc(O)cc2)c1 (centres undefined) | 0.00316 µM [rising, full curve, poor fit] | 
Cc1ccccc1Nc1nc(N)nc(CSc2nnc3sc4ccccc4n23)n1 | 2.51 µM [falling, full curve, poor fit] | 
O=C(C1CCCO1)N1CCN(C(=S)Nc2ccc(Cl)c(Cl)c2)CC1 (centres undefined) | 11.2 µM [rising, partial curve] | 10 µM [rising, partial curve, poor fit]
CCCCC(=O)NC(c1ccco1)c1c(O)ccc2ccccc12 (centres undefined) | 22.4 µM [rising, single point] | 
C=CCN1C(=O)S/C(=C\c2ccc(N3CCOCC3)cc2C)C1=O |  | 12.6 µM [rising, single point]
CC(=O)c1cc(-c2ccccc2)n(CCC(=O)Nc2ccc(C(C)C)cc2)c1C | 12.6 µM [rising, single point] | 7.94 µM [rising, partial curve]
COc1ccccc1OCCNc1cc(N2CCCCC2)ccc1[N+](=O)[O-] | 14.1 µM [rising, partial curve] | 10 µM [rising, single point]
CCOC(=O)c1ccc(N/C(=N\S(=O)(=O)c2ccccc2C)c2ccccc2)cc1 | 22.4 µM [falling, single point] | 17.8 µM [falling, single point]
COC(CN1C(=O)C(O)=C(C(C)=O)C1c1ccccn1)OC (centres undefined) | 5.62 µM [falling, single point] | 
CCn1c(SCC(=O)c2ccc(O)c(O)c2)nnc1-c1ccc(C)cc1 | 31.6 µM [rising, single point] | 15.8 µM [rising, single point]
Cc1nc2cc3c(cc2c(C)c1C(=O)OC(C)C)OCO3 | 2.51 µM [rising, full curve, poor fit] | 
Cc1cc(C(=O)CN2C(=O)NC3(CCCCC3)C2=O)c(C)n1-c1ccc2c(c1)OCO2 | 35.5 µM [rising, single point] | 
Cc1cccc(OCC(=O)Nc2ccc3nc(Nc4cccc(C(F)(F)F)c4)cc(C)c3c2)c1 | 12.6 µM [falling, partial curve] | 10 µM [falling, partial curve]
CCC(=O)N1C2=C(c3ccccc3[C@@H]1CC(=O)Nc1ccc3ccccc3c1)[C@@H]1C(=O)N(c3ccccc3)C(=O)[C@@H]1[C@H](C)C2 |  | 0.794 µM [rising, partial curve, poor fit]
CC(C)(C)c1nc(SCC(=O)c2ccccc2)c2ccccc2n1 | 22.4 µM [rising, single point] | 11.2 µM [rising, partial curve]
COc1cc(Cl)c(C)cc1NC(=O)CN(C)Cc1cccc(OC)c1OC | 28.2 µM [falling, single point] | 20 µM [falling, partial curve, poor fit]
CCC(CC)c1nnc(NC(=O)c2cccnc2SC)s1 |  | 0.1 µM [falling, full curve, poor fit]
CCn1c(SCC(=O)Nc2nc3c(s2)CCCC3)nnc1-c1ccccc1 | 5.01 µM [rising, partial curve] | 3.55 µM [rising, full curve]
CCOc1cc(C#N)c(NC(=O)c2cccnc2)cc1OCC | 6.31 µM [falling, full curve, poor fit] | 7.08 µM [falling, full curve, poor fit]
Cc1nc(NC(=O)c2ccco2)sc1C(=O)Nc1ccc(Br)cc1 | 11.2 µM [falling, partial curve] | 
CC(=O)N(CCC(Cc1ccccc1)c1ccc2c(c1)OCO2)Cc1ccccc1F (centres undefined) | 7.94 µM [rising, partial curve] | 
Cc1ccccc1CN1C(=O)C(O)(CC(=O)c2ccccc2)c2cc(Cl)ccc21 (centres undefined) | 12.6 µM [falling, single point] | 

SMILES | AC50 [1] | AC50 [2]
Cc1c(NC(=O)C(C)n2cc([N+](=O)[O-])cn2)c(=O)n(-c2ccccc2)n1C (centres undefined) | 0.501 µM [falling, full curve] | 
Cc1ccc(F)cc1NC(=O)c1ccc(NS(=O)(=O)c2ccc(Br)s2)cc1 | 14.1 µM [rising, single point] | 
COC(=O)c1ccccc1NC(=O)CN1CCC(n2nnc3cc(C)ccc32)CC1 |  | 2.82 µM [rising, single point]
O=C(NCc1ccc2c(c1)OCO2)c1ccc(CS(=O)(=O)c2ccc(Br)cc2)o1 | 35.5 µM [rising, single point] | 
Cc1cc(N/N=C/c2ccc(O)cc2)nc(NS(=O)(=O)c2ccccc2)n1 | 35.5 µM [rising, single point] | 
CCOC(=O)c1c(S(=O)(=O)NCC(=O)N2CCN(c3cccc(Cl)c3)CC2)c(C)n(C)c1C | 0.158 µM [falling, full curve, poor fit] | 0.126 µM [falling, full curve, poor fit]
CCOC(=O)N1CCN(S(=O)(=O)c2ccc3c(c2)SC(C)C(=O)N3)CC1 (centres undefined) | 5.62 µM [rising, partial curve] | 1.78 µM [rising, partial curve, poor fit]
CSc1ncccc1C(=O)OCC(=O)c1cccc(Br)c1 |  | 35.5 µM [falling, partial curve, poor fit]
Brc1ccc([C@H]2CN3CCSC3=N2)cc1 | 5.62 µM [falling, partial curve, poor fit] | 5.01 µM [falling, partial curve, poor fit]
CCn1c(COc2ccccc2C)nnc1SCC(=O)CC(=O)Nc1ccccc1 | 10 µM [rising, partial curve, poor fit] | 
Nc1ccc(C2=Nc3cccc4cccc(c34)N2)cc1 | 20 µM [rising, single point] | 
O=C(Nc1cc(S(=O)(=O)N2CCCCC2)ccc1O)c1ccccc1NS(=O)(=O)c1ccc(F)c(F)c1 | 2 µM [rising, partial curve, poor fit] | 
CC(=O)c1cccc(NC(=O)CSc2nnc3ccc(-c4ccc(F)cc4)nn23)c1 |  | 1 µM [rising, partial curve, poor fit]
N#Cc1ccccc1-c1ccc2ncnc(N3CCNCC3)c2c1 | 14.1 µM [rising, single point] | 10 µM [rising, partial curve]
O=C(Nc1ccc(Br)cc1F)c1cc(S(=O)(=O)NC2CCCC2)ccc1F | 35.5 µM [falling, partial curve, poor fit] | 35.5 µM [falling, partial curve, poor fit]
CCOC(=O)C1=C(C)OC(N)=C(C#N)C1c1cc2cc(C)ccc2nc1N1CCCCC1 (centres undefined) | 35.5 µM [rising, single point] | 
Cc1ccc(NC(=O)CCNC(=O)c2ccco2)cc1F | 17.8 µM [falling, partial curve, poor fit] | 35.5 µM [falling, partial curve, poor fit]
COc1cccc2cc(C(C)=O)oc12 | 0.01 µM [falling, full curve, poor fit] | 
COC(=O)c1c(NC(=O)Cc2cccs2)sc2c1CCCC2 | 1 µM [rising, full curve, poor fit] | 
Cc1[nH]nc(-c2ccc(OCc3cnn(-c4ccccc4)c3)cc2O)c1Oc1ccccc1F | 22.4 µM [falling, single point] | 25.1 µM [falling, single point]
CC(C)OCCCNC(=O)Cc1ccc(F)cc1 | 0.02 µM [falling, full curve, poor fit] | 
COc1ccccc1C(=O)N=Nc1c(O)[nH]c2ccc([N+](=O)[O-])cc12 | 1.26 µM [rising, partial curve] | 0.112 µM [rising, partial curve, poor fit]
Clc1ccc(C[n+]2cc(-c3ccccc3)n3c2CCCCC3)c(Cl)c1 | 6.31 µM [rising, partial curve] | 
Nc1ncc(Br)cc1S(=O)(=O)NCCC(=O)N1CCN(c2ccccn2)CC1 | 31.6 µM [rising, single point] | 35.5 µM [rising, single point]
CCCN1C2=NCCN2c2cc(C)c(C)cc21 | 35.5 µM [rising, single point] | 
COc1cccc(-n2ccnc2SCC(=O)Nc2cc(OC)ccc2OC)c1 |  | 14.1 µM [rising, single point]
O=C(Cc1cccs1)Nc1nc(-c2ccc(F)cc2F)cs1 | 31.6 µM [rising, single point] | 

4 structures from above, arranged by count of non-hydrogen atoms, low to high.
SMILES | AC50 [1] | AC50 [2]
O=C(Cc1cccs1)Nc1nc(-c2ccc(F)cc2F)cs1 | 31.6 µM [rising, single point] | 
Cc1c(NC(=O)C(C)n2cc([N+](=O)[O-])cn2)c(=O)n(-c2ccccc2)n1C (centres undefined) | 0.501 µM [falling, full curve] | 
O=C(NCc1ccc2c(c1)OCO2)c1ccc(CS(=O)(=O)c2ccc(Br)cc2)o1 | 35.5 µM [rising, single point] | 
COC(=O)c1ccccc1NC(=O)CN1CCC(n2nnc3cc(C)ccc32)CC1 |  | 2.82 µM [rising, single point]
